Measurements: publication PMC7646526

Chains of the proteins cited; added tags and fusions are not shown. Lines headed by an entry give the natural chain unless they say otherwise; changes in a name come on top.
UniProt P70731: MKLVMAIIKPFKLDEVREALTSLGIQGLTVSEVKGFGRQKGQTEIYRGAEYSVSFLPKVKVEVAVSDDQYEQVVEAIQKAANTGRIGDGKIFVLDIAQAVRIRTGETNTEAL
UniProt A0A0N7I7C7: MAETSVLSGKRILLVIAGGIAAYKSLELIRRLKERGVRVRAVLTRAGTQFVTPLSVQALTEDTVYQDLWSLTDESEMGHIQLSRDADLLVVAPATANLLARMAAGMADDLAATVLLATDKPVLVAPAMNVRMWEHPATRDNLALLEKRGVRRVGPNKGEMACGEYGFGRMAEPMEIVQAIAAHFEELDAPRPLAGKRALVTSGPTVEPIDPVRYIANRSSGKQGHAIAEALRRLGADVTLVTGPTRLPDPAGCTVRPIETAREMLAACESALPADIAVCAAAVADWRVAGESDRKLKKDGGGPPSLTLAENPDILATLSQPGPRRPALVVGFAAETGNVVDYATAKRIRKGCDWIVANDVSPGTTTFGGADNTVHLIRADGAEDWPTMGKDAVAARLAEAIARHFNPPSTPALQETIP
UniProt A0A0N7I832: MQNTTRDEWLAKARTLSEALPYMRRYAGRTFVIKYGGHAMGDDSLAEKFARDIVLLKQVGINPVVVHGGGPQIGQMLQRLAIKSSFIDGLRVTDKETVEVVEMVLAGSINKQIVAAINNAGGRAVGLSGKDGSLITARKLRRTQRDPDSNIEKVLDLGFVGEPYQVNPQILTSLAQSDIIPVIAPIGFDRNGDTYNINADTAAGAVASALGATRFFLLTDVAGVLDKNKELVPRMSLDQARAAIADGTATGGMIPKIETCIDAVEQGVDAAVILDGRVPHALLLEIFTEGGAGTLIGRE

target: His-tagged GlnZ (A. brasilense) (UniProt P70731); assay: affinity purification with mass spectrometry; GlnZ ligand fishing: His-GlnZ held on Ni2+ columns (HiTrap chelating or Protino Ni-IDA; in one of six assays, ATP4, 3×-FLAG GlnZ on anti-FLAG M2 magnetic beads); A. brasilense 2812 soluble protein extract loaded in 50 mM Tris-HCl pH 8, 100 mM KCl, 5 mM MgCl2, 1 mM ATP or ADP; eluted with 1 mM ATP + 1.5 mM 2-OG; label-free LC-MS/MS against columns without GlnZ; only the target purified

Molecule | binding
BCCP (biotin carboxyl carrier protein) (protein, UniProt A0A0P0EWD9 1-149) MASFDIDGDLVRKLADLLRETGLSEIEFAEGEKRIRVTRPTAAQAVAVHAPVAAPAPATAPAAAPAGKPASHPGAVTSPMVGTAYAAAEPGGTPFVRVGDTVKAGQTVLIIEAMKVMNPIKAPRGGTVVEILISDSQPVEFGEVLMIIE | binds
Ade (enzyme, UniProt A0A0P0F3K4 1-569) MAVTRDELKTRIGQALGETKADLVIKNTRFLNVVTGETAAGDIALCGDRIVGTYESYDGTEEIDGSGLTVVPGFIDTHVHCESTCVTPMEFDRCVLPRGTTTAICDPHEICNVLGDKGLRYFLDCAEGTALDLRVQLSSCVPATELETSGARLEAADLLRHKDHPKVLGLAEFMNFPGVFHKVDGVLEKLAAFDGRHIDGHAPLLSGRELNAYLSCGIRNCHETTSAPEAMEKLRKGMQVLIRDGSVSKDVHALAPVIQPETSPFLGFCTDDRNPLDIAEEGHMDHLIRSAIRLGAPLSHVYRAATWSAARGFGLFDRGLIAPGQRADLVLLDDLEDCAVNRVIRNGRVVSPETFAGRPAVSPVGLRSVKLHPVTAEDFAVPARGSVQSVIGVLPGKIITAHLRLEVPAKDGKLVADPDRDILKICVFARHGTNQNVGRGFASGFHFREGALASSVGHDSHNICVVGASDEDMAIAVNRLIELQGGFVAVRNGKVVGELALPLAGLMSLEPFETVERHLRSLRASVKEMGCPLAEPFLQLAFLPLPVIPHLKITDRGLVDVDKFAMVEA | binds
RPH, RNase PH (G8AGG4) (enzyme, UniProt A0A4D8QJU4 1-239) MRPSGRAHDQLRTISLEPHFSKHAEGSCLVRFGDTHVLCTASVDEGVPRFLKNTGLGWVTAEYGMLPRSTHSRTDREAAKGKQSGRTQEIQRLIGRALRAVTDRAAMGEKQIKIDCDVIQADGGTRTAAITGSFVALHLAFQHLMQIGALKTMPLTDHVAAVSCGIYKNTSVLDLDYAEDSTAQADANFVLTGQGGIVEVQGTAEERPFSEPQFMELLALARKGIDELVALQKAAIAVK | binds
RNase R (enzyme, UniProt A0ABU4P7I5 1-766) MARTPLNDTPRRSGSFPDKDMVLSFIRSSTTPVGKRELARAFKLSGSDDRERLKALLKELEADGSVERGRNKRVAPPQSLPEVAVLEVTGTDADGEVTARPVTWTGEGNPPRIFLMPERKGHPTLGTGDRVLAKLNRINDRLYEARTIRRLDGTVGRVLGVYYPAADGGRIVPTDKRNKTELLVLPANRNDAEPGELVLADLLPAARLGLPQARVAERLGHTAEPRAVSLIAIHTHGLPTDFPPAALREASHAAVPSLTGRTDLRHIPLVTIDGADARDFDDAVWAEPDPDPANQGGWHLLVAIADVAFYVRPNSALDRTAFERGNSVYFPDRVVPMLPEALSNDLCSLRPQEDRACVAAHLWIDRYGALLRHRFVRGLMRSAARLTYEQVQAARDGVPDEATAPLLETVIAPLYGAFACLWAARQRRGTLELDLPERRVRLDERGRVAEIAPRERLDSHRLIEEFMICANVAAADSLERAGMPGLFRVHDQPSLDKQETLREFLTGIGYSLPRVPRLTPAHFTAVLDRAAGTAESQLVSEVILRSQSQAEYSPENIGHFGLSLDRYAHFTSPIRRYADLIVHRALIRAHGLGPGGLDDAAMAGLTDIGEHISMTERRAATAERDAIDRFTAAFLADRVGALFTGRISGVTRFGLFIRLDENGADGLIPASTLPDDQYEHDERAHALVGQRTGRSYRLGAAVKVVLMEADPLTGSTLFALPRAEGASAGDFVGSTDHPLQSSHPDRPPRSARFAGRATQKQRKRGR | binds
Rho factor (G8AG60) (protein, UniProt A0A560CHF0 1-418) MHLQELKCKSPAELLAFAEELQIENASTLRKQDMMFAILKQLAENDVPIYGDGVLEVLQDGFGFLRSPEANYLPGPDDIYVSPSQVRRFSLRTGDTVEGQIRAPKDGERYFALLKVNTINFDAPDKVRHRINFDNLTPLYPEERLRMEVDDPTKKNYTGRIIDLVAPLGKGQRGLIVAPPRTGKTVMLQNIAHSIATNHPEAYLIVLLIDERPEEVTDMARSVRGEVISSTFDEPATRHVQVAEMVIEKAKRLVEHKRDVVILLDSITRLARAYNTVVPSSGKVLTGGVDANALQRPKRFFGAARNIEEGGSLTIIATALIDTGSRMDEVIFEEFKGTGNSEIVLDRKLSDKRTFPAIDISKSGTRKEELLVDKGTISKMWILRRILMPMGVTDAVDFLVDKLKHTKSNSEFFESMNQ | binds
TrkA (G8AQ29) (protein, UniProt A0A0P0EHA2 1-458) MKVIVCGAGQVGSNIARYLASEGNNVTVIDHSPELIQRISDTLDVQAMVGHASHPDVLEAAGAGETDMIIAVTQIDEINMVACEVAHALFKVPTKIARVRNQSYLKPIWADLFSRDHMPIDVIISPEIAVARAIARRLQVPGAFDMIPLADGKVRVVGVLCTETCPVLHTPLRQLTGLFPDLGLEVVAIIRNDRSFIPGGDDQMLPGDEVYFACDNRHLNRAMSAFGHEEVEARRIIILGGGNIGLCLAEELEAKYPHVTARIIEMNRSRAQYVAQRLSRTMVLHGDGLDPEILEEANVRATETVVAVTNDDEGNILSSLLAKRHGAKRAITLINKASYTSLVSPLGIDAVVSPRAITVSNILQHVRRGRIRAVHSLRDGFAEVIEAEALETSAVVNTPLREVKLPSGVIVGAIVRGDEVIVPRPATVIRPKDRVVILATAGQVKKVEKMFAVRLEFF | binds
ATase, glutamine synthetase adenylyltransferase (A7Y9V0) (enzyme, UniProt A0A0P0F2U7 1-1005) MTTTLPKPFDTGLAERGLERWRAEAANAADNDGNNDGDSTGDALRAWAEAYADSAEGRALIDAVCGNSPYLGQILTRELPFVREMVTRGYDDAFATLLRRLEADCAEERNIDRLMTALRIAKRRAALLIAIADITGAWELEAVTGALSDIAETSVRMAANHLLRRAAEAGTLTLPEPQRPWVGSGLIVLGMGKLGARELNYSSDIDLIVLYDDAVVQTPQPDNLARTFIRIARDLVRIMDERTKDGYVFRTDLRLRPDPGATPLAVSVSAAEIYYGSVGQNWERAAMIKARPIAGDPEAGAHFLRFLEPFVWRRHLDFAAIQDIHSIKRQINAHKGHREVTVNGHDIKVGRGGIREIEFFAQTQQLIFGGRDIRVRIAPTLLANKALCAVGRVPEAAVEELEEAYRFLRRVEHRIQMTDDRQTHQIPADDEGVAHLATFLGYAQVEDFRADLLAQLGRVEDRYAELFEEAPSLSGPGNLVFTGTDDDPGTVKTLAGMGYRDPSRVIAVVSTWHRGRYRSTRSGRARELLTELVPAMLNELAKTPAPDDALVKFDSFLERLPAGVGLFSLFIANPWLLALVAEIMGTAPQLAETLSRNPSLLDAVLSPDFFDPLPDAAGLTPEYQRFIAGAHNFEDVLTLSRRWTNDQRFRAGAHILRGITDGDHCGPFLADLADVVVPELAARVEEEFATRHGRIPGGAWVVVAMGKLGSRQLTITSDIDLIVVYEVPPGTRQSDGTKPLAPNEYYIKLTQRLTNAITAPMADGRLYEVDMRLRPSGNAGPLATALDAFTAYQAKDAWTWEHMALTRARVIGGDPPLGHKVESAIRGVLTGPRDPAKVLRDVADMRRRIDKEFGTANPWNVKYARGGLIDIEFTAQYLQLRHGHAHPEILSIATSRALLNAAAAGLLAPEVAEELAATLKLWRRVQGFLRLTTDGVLDPRQVSPTLREGLSRAAFPDEEPAVDFAALDSRIRDIAARAHRHFVALVEEPASRLPPPETNEEAKLP | binds

target: His-tagged GlnZ (A. brasilense) (UniProt P70731); assay: as above; remark: another data set of the same source

Molecule | binding
CoaBC (G8AF97) (from UniProt A0A0N7I7C7) (enzyme) | binds
N-acetyl-L-glutamate kinase (NAGK) (G8AI64) (from UniProt A0A0N7I832 1-299) (enzyme) | binds

Results are given in words; binding and its absence hold for the method and conditions named. Binding seen in cells or lysates may run through a third protein. A yes stands for co-enrichment or nearness to the bait. Other partners may have been found.
